PubChem BioAssay AID1224826 – NIAID, 2016

Assay: 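Knock-downs that raise or lower Tnf reporter signal after endotoxin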 (primary screen)
System: RAW264.7 G9 macrophages from mouse bearing reporters for p65 (GFP) and the Tnf promoter (mCherry)
Reagent: siRNA pool against mouse genes, 100 nM
Duration: 16 h of LPS stimulation, after 2 days of siRNA transfection
Challenge: bacterial lipopolysaccharide (Salmonella minnesota R595), 10 ng/ml
Measurement: 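Nuclear mCherry signal of the Tnf promoter reporter measured by imaging after background removal, scaled to each plate median and turned into robust z-scores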
Direction: Tnf reporter robust z-score: higher = stronger Tnf promoter reporter signal after LPS
Active means: 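a well counts as active at a score of -1.3 or below (Tlr4 knock-down control median) or above 3 (raised signal); controls and wells holding fewer than 50 cells are excluded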
Meaning of the calls: active = Tnf reporter clearly lowered or raised; inactive = no clear change in Tnf reporter
The whole screen tested about 17,000 reagents; shown is a part drawn at random. Of all reagents, about 1,110 (6.6%) were called active. 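Active means lowered or raised reporter signal; replicate intensities are raw and not normalised per plate.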 Reagents against one gene are numbered here. Further read-outs or replicates are left out here. Reagent sequences are not shown.

Target gene,reagent no.,Tnf reporter robust z-score,fewer than 50 cells in well,activity call
Rasl10a (GeneID 75668),1,-0.03,enough cells in well,inactive
Pik3ca (GeneID 18706),1,-0.42,enough cells in well,inactive
Ppme1 (GeneID 72590),1,0.51,enough cells in well,inactive
Pglyrp1 (GeneID 21946),1,0.09,enough cells in well,inactive
Atp4a (GeneID 11944),1,-0.84,enough cells in well,inactive
Azin1 (GeneID 54375),1,-0.61,enough cells in well,inactive
Slc17a8 (GeneID 216227),1,,fewer than 50 cells per well; well left out of calls,inactive
Or2g1 (GeneID 258623),1,-0.99,enough cells in well,inactive
Ankrd44 (GeneID 329154),1,-1.31,enough cells in well,active
Samd4b (GeneID 233033),1,-0.33,enough cells in well,inactive
Dnajc5g (GeneID 231098),1,,fewer than 50 cells per well; well left out of calls,inactive
Tprg1l (GeneID 67808),1,1.65,enough cells in well,inactive
Hspb3 (GeneID 56534),1,-0.5,enough cells in well,inactive
Slc1a7 (GeneID 242607),1,1.92,enough cells in well,inactive
Skap1 (GeneID 78473),1,1.49,enough cells in well,inactive
Noct (GeneID 12457),1,-0.49,enough cells in well,inactive
Asb3 (GeneID 65257),1,0.84,enough cells in well,inactive
Tpm3 (GeneID 59069),1,,fewer than 50 cells per well; well left out of calls,inactive
Afg2a (GeneID 57815),1,1.08,enough cells in well,inactive
Ly6h (GeneID 23934),1,0.55,enough cells in well,inactive
Gpx3 (GeneID 14778),1,-0.41,enough cells in well,inactive
Dhx32 (GeneID 101437),1,0.27,enough cells in well,inactive
Zbtb8os (GeneID 67106),1,-0.38,enough cells in well,inactive
Tgfbrap1 (GeneID 73122),1,0.05,enough cells in well,inactive
Olfm1 (GeneID 56177),1,1.78,enough cells in well,inactive
Atp23 (GeneID 68876),1,-0.36,enough cells in well,inactive
Ift122 (GeneID 81896),1,0.57,enough cells in well,inactive
Ganc (GeneID 76051),1,-0.82,enough cells in well,inactive
Cetn4 (GeneID 207175),1,-0.82,enough cells in well,inactive
Krt85 (GeneID 53622),1,0.28,enough cells in well,inactive
Nhp2 (GeneID 52530),1,,fewer than 50 cells per well; well left out of calls,inactive
Gpr146 (GeneID 80290),1,-0.23,enough cells in well,inactive
Gpr146 (GeneID 80290),2,,fewer than 50 cells per well; well left out of calls,inactive
Prkar2b (GeneID 19088),1,0.02,enough cells in well,inactive
Deup1 (GeneID 234964),1,,fewer than 50 cells per well; well left out of calls,inactive
Gatm (GeneID 67092),1,-0.61,enough cells in well,inactive
Cdh22 (GeneID 104010),1,2.5,enough cells in well,inactive
1700067P10Rik (GeneID 68224),1,1.27,enough cells in well,inactive
Poc5 (GeneID 67463),1,0.45,enough cells in well,inactive
4632415L05Rik (GeneID 70808),1,-0.62,enough cells in well,inactive
Dctn4 (GeneID 67665),1,-0.91,enough cells in well,inactive
Rab15 (GeneID 104886),1,-0.82,enough cells in well,inactive
4921517D22Rik (GeneID 70900),1,,fewer than 50 cells per well; well left out of calls,inactive
Gdf3 (GeneID 14562),1,-1.06,enough cells in well,inactive
Mtpn (GeneID 14489),1,-0.1,enough cells in well,inactive
Wbp4 (GeneID 22380),1,-0.68,enough cells in well,inactive
Rap2c (GeneID 72065),1,1.21,enough cells in well,inactive
Tie1 (GeneID 21846),1,0.6,enough cells in well,inactive
P2rx6 (GeneID 18440),1,0.41,enough cells in well,inactive
Rbms3 (GeneID 207181),1,,fewer than 50 cells per well; well left out of calls,inactive
Kif26b (GeneID 269152),1,-0.61,enough cells in well,inactive
Kif26b (GeneID 269152),2,,fewer than 50 cells per well; well left out of calls,inactive
Psors1c2 (GeneID 57390),1,-1.95,enough cells in well,active
Sugct (GeneID 192136),1,-0.35,enough cells in well,inactive
Cep128 (GeneID 75216),1,-0.05,enough cells in well,inactive
Dnase1l2 (GeneID 66705),1,-0.1,enough cells in well,inactive
Acot1 (GeneID 26897),1,0.4,enough cells in well,inactive
Dnajc8 (GeneID 68598),1,6.51,enough cells in well,active
Polr2m (GeneID 28015),1,-0.79,enough cells in well,inactive
Cyp2j13 (GeneID 230459),1,-0.65,enough cells in well,inactive
Mtfr2 (GeneID 71804),1,,fewer than 50 cells per well; well left out of calls,inactive
Gpc4 (GeneID 14735),1,-0.35,enough cells in well,inactive
Crebbp (GeneID 12914),1,-1.03,enough cells in well,inactive
Lce1a1 (GeneID 67127),1,0.09,enough cells in well,inactive
Blk (GeneID 12143),1,0.69,enough cells in well,inactive
Taf1b (GeneID 21340),1,0.68,enough cells in well,inactive
Adcy7 (GeneID 11513),1,0.57,enough cells in well,inactive
Lrrcc1 (GeneID 71710),1,-1.32,enough cells in well,active
L3mbtl2 (GeneID 214669),1,-0.12,enough cells in well,inactive
Tas2r124 (GeneID 387351),1,3.06,enough cells in well,active
Usp47 (GeneID 74996),1,0.02,enough cells in well,inactive
Usp47 (GeneID 74996),2,-0.41,enough cells in well,inactive
Pah (GeneID 18478),1,1.41,enough cells in well,inactive
Or4c124 (GeneID 258320),1,0.26,enough cells in well,inactive
Fgfr3 (GeneID 14184),1,0.1,enough cells in well,inactive

Taken from above:
Entry of Olfm1 (GeneID 56177) under “activity call”: inactive
Sugct (GeneID 192136), activity call → inactive
Under “Tnf reporter robust z-score”, Lce1a1 (GeneID 67127) reads 0.09
Rasl10a (GeneID 75668), fewer than 50 cells in well: enough cells in well
Gpr146 (GeneID 80290) #2, activity call: inactive
For “fewer than 50 cells in well”, Dhx32 (GeneID 101437) shows enough cells in well
